From PubChem BioAssay AID1347131 (National Center for Advancing Translational Sciences (NCATS), 2019)
Several values for one entry are separate records, joined by “and”; a condition that tells them apart may be missing. Equal values may be shown once. The campaign covered roughly 410,000 compounds. About 2,000 (0.49%) were called active. The shares of active, inactive and inconclusive entries below differ from those in the screen. Calls come from the whole dose curve; tested in HEK293 reporter line. A potency beside an inconclusive call is a rough fit, not a confirmed value.

test: qHTS Assay for Foot and Mouth Disease Virus Antivirals: Primary Screen against the MLPCN compound library; conditions: FMDV antiviral cell-based qHTS; activity, negative = inhibition: at 57.9 µM (top of the series); note: nearly all actives have a fitted effect of over 55% in size
Potency is the fitted concentration of half-maximal effect.

SMILES	Potency	activity, negative = inhibition
O=C(N/N=C/c1cn(-c2ccccc2)nc1-c1cc2ccccc2o1)c1cccnc1	inconclusive: 20 µM [inhibitor, single point]	–
O=S(=O)(c1ccc(F)c(F)c1F)N1CCN(C(=S)NC2CC3CCC2C3)CC1 (centres undefined)	inconclusive: 11.2 µM [inhibitor, partial curve]	–
COc1ccc(NC(=O)CCc2nc(C3=CCN(Cc4cccc(Cl)c4)CC3)no2)cc1OC	inconclusive: 31.6 µM [inhibitor, single point]	–
O=C(NCC1CCCO1)c1cccc2c1C(=O)c1ccc(N3CCC(Cc4ccccc4)CC3)cc1S2(=O)=O (centres undefined)	inconclusive: 12.6 µM [inhibitor, partial curve, poor fit]	–
COc1ccccc1-n1nnnc1S(=O)(=O)Cc1ccc(Cl)cc1	inconclusive: 10 µM [inhibitor, partial curve, poor fit]	–
CC(C)(C)[C@H]1C=C(C(=O)NC2CC2)O[C@@H](OCCCCO)C1	inconclusive: 3.55 µM [inhibitor, partial curve, poor fit]	–
CCOc1cc(/C=C(\C#N)C(=O)Nc2cccc(C(=O)O)c2)cc(Br)c1OC(=O)c1ccc(OC)cc1	inconclusive: 14.1 µM [inhibitor, single point]	–
CCOc1ccc(CNC(=O)c2cccc(NC(=O)N3CCSc4ncccc43)c2)cc1OC	inconclusive: 14.1 µM [inhibitor, partial curve, poor fit]	–
CC(=O)N1CCCc2cc(S(=O)(=O)N3CCCC(C(=O)N4CCN(c5cccc(Cl)c5)CC4)C3)ccc21 (centres undefined)	inconclusive: 17.8 µM [inhibitor, partial curve, poor fit] and inconclusive: 12.6 µM [inhibitor, partial curve, poor fit]	–
CCc1c(C2(O)CCCCC2)[nH]c2ccc(C(F)(F)F)cc12	inconclusive: 39.8 µM [inhibitor, partial curve, poor fit]	–
Oc1[nH]c2ccc(Br)cc2c1N=NC(=S)N1CCOCC1	inconclusive: 3.16 µM [inhibitor, full curve, poor fit]	–
FC(F)Oc1ccccc1C1CC(c2ccc(Br)s2)Nc2ncnn21 (centres undefined)	–	inconclusive: -41.5% [inhibitor]
CC(=O)N1CCN(c2cc(-c3ccccc3)nc3cc(-c4cccc(Cl)c4)nn23)CC1	inconclusive: 17.8 µM [inhibitor, partial curve, poor fit]	–
Clc1ccc(OCc2nc(-c3ccccn3)no2)c(Br)c1	active: 20 µM	–
CCNc1c(NS(=O)(=O)c2ccc(C3CCCCC3)cc2)c(=O)oc2ccccc12	inconclusive: 25.1 µM [inhibitor, partial curve, poor fit]	–
CCCCCCCCCCOC(=O)Cn1c(COc2ccccc2)[n+](C)c2ccccc21	inconclusive: 35.5 µM [inhibitor, single point]	–
Cc1ccc(C(=O)COC(=O)CCC(=O)Nc2cc(Cl)ccc2Cl)cc1[N+](=O)[O-]	–	inconclusive: -30.7% [inhibitor]

SMILES	Potency	activity, negative = inhibition
Cc1cc(OCC(=O)Nc2ccc(N3CCN(C(=O)c4ccco4)CC3)cc2)cc(C)c1Cl	inconclusive: 6.31 µM [inhibitor, partial curve, poor fit]	–
C=CCn1c(SCC(=O)Nc2ccc(-c3nc4ccc(C)cc4s3)cc2)nnc1-c1ccccc1	inconclusive: 39.8 µM [inhibitor, single point]	–
O=S(=O)(NCCC(c1ccc(F)cc1)c1ccco1)c1ccccc1 (centres undefined)	inconclusive: 4.47 µM [inhibitor, partial curve, poor fit]	–
CCOC(=O)CSc1nc2ccccc2c(=O)n1NC(=O)c1ccccc1	inconclusive: 15.8 µM [inhibitor, single point]	–
COc1ccccc1OCc1ccc(C(=O)Nc2ccncc2)o1	inconclusive: 14.1 µM [inhibitor, partial curve, poor fit]	–
Cc1ccc(C(=O)c2cn(Cc3cccc(Cl)c3)c3nc(C)ccc3c2=O)cc1	inconclusive: 28.2 µM [inhibitor, partial curve, poor fit]	–
COc1cc(NC(=O)COc2cc(O)c3c(c2)OC(C)(C)CC3=O)cc(OC)c1	inconclusive: 20 µM [inhibitor, partial curve]	–
CCOc1ccc(-c2nc(N)nc(C)c2-c2ccc(OC)c(OC)c2)c(O)c1	inconclusive: 31.6 µM [inhibitor, partial curve, poor fit]	–
Cc1nn(Cc2ccc(Cl)cc2Cl)c(C)c1NC(=O)CCl	inconclusive: 22.4 µM [inhibitor, partial curve, poor fit]	–
COC(=O)c1c(C)nn(-c2ccc(OC(F)(F)F)cc2)c1-c1snnc1C	inconclusive: 35.5 µM [inhibitor, partial curve, poor fit]	–
O=C(Nc1cccc(S(=O)(=O)N2CCCCC2)c1)c1ccc2c(=O)n3c(nc2c1)CCCCC3	inconclusive: 3.16 µM [inhibitor, partial curve, poor fit]	–
O=C(CN1C(=O)/C(=C2\SC(=S)N(C3CCS(=O)(=O)C3)C2=O)c2ccccc21)Nc1ccc(F)cc1 (centres undefined)	inconclusive: 12.6 µM [inhibitor, partial curve, poor fit]	–
CCOc1cc(/C=C2\CCC/C(=C\c3cc(Cl)c(O)c(OCC)c3)C2=O)cc(Cl)c1O	inconclusive: 15.8 µM [inhibitor, partial curve, poor fit]	–
Oc1cccc(-c2nc3ccccc3s2)c1	inconclusive: 39.8 µM [inhibitor, single point]	–
Cc1ccc(-n2c3nc(=O)[nH]c(=O)c-3cc3cc([N+](=O)[O-])ccc32)cc1	inconclusive: 31.6 µM [inhibitor, partial curve, poor fit]	–
COc1ccc(C(=O)c2coc3ccc(O)cc23)cc1	inconclusive: 39.8 µM [inhibitor, single point]	–
Cc1ccc(NC(=O)CSc2ncnc3ccccc23)cc1S(=O)(=O)N1CCCCC1	inconclusive: 15.8 µM [inhibitor, partial curve, poor fit]	–

Structures shown so far that have a nitro group on carbon (two):
SMILES	Potency	activity, negative = inhibition
Cc1ccc(C(=O)COC(=O)CCC(=O)Nc2cc(Cl)ccc2Cl)cc1[N+](=O)[O-]	–	inconclusive: -30.7% [inhibitor]
Cc1ccc(-n2c3nc(=O)[nH]c(=O)c-3cc3cc([N+](=O)[O-])ccc32)cc1	inconclusive: 31.6 µM [inhibitor, partial curve, poor fit]	–
